We go through one substance from article doi:10.1101/524314.

The target of assay [1] is T1, ribosomal protein S19a (Drosophila melanogaster (endogenous in embryo extract)) (UniProt P39018).
T1 sequence: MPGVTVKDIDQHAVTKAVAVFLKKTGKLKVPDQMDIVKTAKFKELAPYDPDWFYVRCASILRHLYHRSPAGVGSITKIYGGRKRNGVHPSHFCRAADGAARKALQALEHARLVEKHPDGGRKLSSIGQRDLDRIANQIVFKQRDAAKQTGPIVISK
Kind of assay: cross-linking.

Assay [2] concerns the target T2, ribosomal protein S3A (Drosophila melanogaster (endogenous in embryo extract)) (UniProt P55830).
T2 sequence: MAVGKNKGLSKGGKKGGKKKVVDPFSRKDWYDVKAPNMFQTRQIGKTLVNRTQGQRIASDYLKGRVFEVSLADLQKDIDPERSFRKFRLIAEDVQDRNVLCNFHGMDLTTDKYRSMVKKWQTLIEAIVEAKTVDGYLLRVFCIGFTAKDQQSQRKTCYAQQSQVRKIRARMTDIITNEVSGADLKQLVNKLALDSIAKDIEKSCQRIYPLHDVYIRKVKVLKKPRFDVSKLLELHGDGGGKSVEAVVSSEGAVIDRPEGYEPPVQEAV
The assay is described as follows: cross-linking.

These are yes or no findings as the source states them, for the method shown. Binding seen in cells or lysates may run through a third protein. Binding calls can cover weak binding; strength is not graded here.

Regarding Vig2 protein, the binding result in assay [1] and in assay [2] was “binds” each time.
